# Results as given in PMC11005689.
# The chains behind the UniProt entries cited, without tags or fusion partners.
# UniProt Q7L5N1: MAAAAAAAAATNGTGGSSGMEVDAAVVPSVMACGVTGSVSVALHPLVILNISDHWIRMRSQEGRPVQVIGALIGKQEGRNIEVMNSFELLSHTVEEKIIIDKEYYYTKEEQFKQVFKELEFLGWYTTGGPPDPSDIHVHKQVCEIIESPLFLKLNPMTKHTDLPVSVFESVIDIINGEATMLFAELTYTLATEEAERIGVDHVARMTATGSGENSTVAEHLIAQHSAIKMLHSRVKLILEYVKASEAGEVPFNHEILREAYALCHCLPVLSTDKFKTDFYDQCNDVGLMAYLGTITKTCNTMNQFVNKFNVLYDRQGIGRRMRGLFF
# UniProt Q00987: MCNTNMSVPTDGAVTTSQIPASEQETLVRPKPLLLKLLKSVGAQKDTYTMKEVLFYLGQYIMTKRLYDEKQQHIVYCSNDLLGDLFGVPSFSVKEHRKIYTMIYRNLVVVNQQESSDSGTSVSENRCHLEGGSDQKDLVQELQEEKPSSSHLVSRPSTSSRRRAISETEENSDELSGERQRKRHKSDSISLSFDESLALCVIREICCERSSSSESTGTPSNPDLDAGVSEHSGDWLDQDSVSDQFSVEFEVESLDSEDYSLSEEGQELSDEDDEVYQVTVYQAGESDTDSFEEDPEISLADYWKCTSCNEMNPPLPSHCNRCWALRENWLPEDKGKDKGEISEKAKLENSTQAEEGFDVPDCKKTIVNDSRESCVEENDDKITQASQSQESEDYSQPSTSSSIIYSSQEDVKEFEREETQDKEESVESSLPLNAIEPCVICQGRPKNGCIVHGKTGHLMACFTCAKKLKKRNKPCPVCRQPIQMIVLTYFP
# UniProt O43791: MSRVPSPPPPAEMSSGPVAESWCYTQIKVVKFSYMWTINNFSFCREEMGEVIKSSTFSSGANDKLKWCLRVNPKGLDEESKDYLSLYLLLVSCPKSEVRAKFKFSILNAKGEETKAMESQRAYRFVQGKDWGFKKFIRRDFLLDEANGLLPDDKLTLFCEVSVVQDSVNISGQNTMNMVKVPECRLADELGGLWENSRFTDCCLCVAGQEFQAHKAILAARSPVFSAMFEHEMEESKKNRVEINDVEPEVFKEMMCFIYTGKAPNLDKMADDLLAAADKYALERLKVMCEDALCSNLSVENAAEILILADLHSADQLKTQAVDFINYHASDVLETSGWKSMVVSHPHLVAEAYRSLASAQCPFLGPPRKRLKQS
# Results are given in words; binding and its absence hold for the method and conditions named. Binding seen in cells or lysates may run through a third protein. Some results given as binding are weak or reduced against the parent protein; the word gives no strength.
# Experiments:
# [1] = target: T1, hydroxymethylglutaryl‐CoA synthase 1 (HMGCS1) (human (endogenous in Huh-7)) (UniProt Q01581); experiment: co-IP; immunoprecipitates from Huh‐7 cells treated with MG132 for 6 h, immunoblot (Figure 5K)
# T1 sequence: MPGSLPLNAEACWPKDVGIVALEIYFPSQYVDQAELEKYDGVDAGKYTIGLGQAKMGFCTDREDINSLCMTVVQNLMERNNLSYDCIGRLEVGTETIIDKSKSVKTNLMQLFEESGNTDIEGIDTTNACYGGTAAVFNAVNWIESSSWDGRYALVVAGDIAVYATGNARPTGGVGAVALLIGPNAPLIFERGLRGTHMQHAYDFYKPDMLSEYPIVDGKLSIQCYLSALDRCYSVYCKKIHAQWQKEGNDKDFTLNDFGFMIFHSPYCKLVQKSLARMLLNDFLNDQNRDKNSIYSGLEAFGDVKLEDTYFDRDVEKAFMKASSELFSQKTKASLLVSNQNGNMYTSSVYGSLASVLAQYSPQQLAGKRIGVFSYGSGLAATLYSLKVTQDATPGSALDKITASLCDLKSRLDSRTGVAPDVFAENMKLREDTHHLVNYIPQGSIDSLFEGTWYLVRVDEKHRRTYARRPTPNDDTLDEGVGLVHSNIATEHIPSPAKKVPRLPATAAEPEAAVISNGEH
# [2] = target: CSN6 (co-IPs of Figure 6B,C) (UniProt Q7L5N1); experiment: co-IP; co‐IP with indicated antibodies (Figure 6B,C); cells not given; cell lysates with antibody overnight at 4 °C and Protein A/G agarose per the methods
# [3] = target: MDM2 (UniProt Q00987); experiment: as above
binding [1],binding [2],binding [3],Substance
binds,–,–,CSN6 (from UniProt Q7L5N1 1-327)
binds,–,–,speckle‐type POZ protein (SPOP) (from UniProt O43791 1-374)
–,binds,–,MDM2 (from UniProt Q00987 1-491)
–,–,binds,"CSN6 (co-IPs of Figure 6B,C) (from UniProt Q7L5N1 1-327)"
–,binds,binds,"SPOP (co-IPs of Figure 6B,C) (from UniProt O43791 1-374)"
